These results are taken from PMC9100841.

Chains of the proteins cited; added tags and fusions are not shown.
UniProt Q9HD67: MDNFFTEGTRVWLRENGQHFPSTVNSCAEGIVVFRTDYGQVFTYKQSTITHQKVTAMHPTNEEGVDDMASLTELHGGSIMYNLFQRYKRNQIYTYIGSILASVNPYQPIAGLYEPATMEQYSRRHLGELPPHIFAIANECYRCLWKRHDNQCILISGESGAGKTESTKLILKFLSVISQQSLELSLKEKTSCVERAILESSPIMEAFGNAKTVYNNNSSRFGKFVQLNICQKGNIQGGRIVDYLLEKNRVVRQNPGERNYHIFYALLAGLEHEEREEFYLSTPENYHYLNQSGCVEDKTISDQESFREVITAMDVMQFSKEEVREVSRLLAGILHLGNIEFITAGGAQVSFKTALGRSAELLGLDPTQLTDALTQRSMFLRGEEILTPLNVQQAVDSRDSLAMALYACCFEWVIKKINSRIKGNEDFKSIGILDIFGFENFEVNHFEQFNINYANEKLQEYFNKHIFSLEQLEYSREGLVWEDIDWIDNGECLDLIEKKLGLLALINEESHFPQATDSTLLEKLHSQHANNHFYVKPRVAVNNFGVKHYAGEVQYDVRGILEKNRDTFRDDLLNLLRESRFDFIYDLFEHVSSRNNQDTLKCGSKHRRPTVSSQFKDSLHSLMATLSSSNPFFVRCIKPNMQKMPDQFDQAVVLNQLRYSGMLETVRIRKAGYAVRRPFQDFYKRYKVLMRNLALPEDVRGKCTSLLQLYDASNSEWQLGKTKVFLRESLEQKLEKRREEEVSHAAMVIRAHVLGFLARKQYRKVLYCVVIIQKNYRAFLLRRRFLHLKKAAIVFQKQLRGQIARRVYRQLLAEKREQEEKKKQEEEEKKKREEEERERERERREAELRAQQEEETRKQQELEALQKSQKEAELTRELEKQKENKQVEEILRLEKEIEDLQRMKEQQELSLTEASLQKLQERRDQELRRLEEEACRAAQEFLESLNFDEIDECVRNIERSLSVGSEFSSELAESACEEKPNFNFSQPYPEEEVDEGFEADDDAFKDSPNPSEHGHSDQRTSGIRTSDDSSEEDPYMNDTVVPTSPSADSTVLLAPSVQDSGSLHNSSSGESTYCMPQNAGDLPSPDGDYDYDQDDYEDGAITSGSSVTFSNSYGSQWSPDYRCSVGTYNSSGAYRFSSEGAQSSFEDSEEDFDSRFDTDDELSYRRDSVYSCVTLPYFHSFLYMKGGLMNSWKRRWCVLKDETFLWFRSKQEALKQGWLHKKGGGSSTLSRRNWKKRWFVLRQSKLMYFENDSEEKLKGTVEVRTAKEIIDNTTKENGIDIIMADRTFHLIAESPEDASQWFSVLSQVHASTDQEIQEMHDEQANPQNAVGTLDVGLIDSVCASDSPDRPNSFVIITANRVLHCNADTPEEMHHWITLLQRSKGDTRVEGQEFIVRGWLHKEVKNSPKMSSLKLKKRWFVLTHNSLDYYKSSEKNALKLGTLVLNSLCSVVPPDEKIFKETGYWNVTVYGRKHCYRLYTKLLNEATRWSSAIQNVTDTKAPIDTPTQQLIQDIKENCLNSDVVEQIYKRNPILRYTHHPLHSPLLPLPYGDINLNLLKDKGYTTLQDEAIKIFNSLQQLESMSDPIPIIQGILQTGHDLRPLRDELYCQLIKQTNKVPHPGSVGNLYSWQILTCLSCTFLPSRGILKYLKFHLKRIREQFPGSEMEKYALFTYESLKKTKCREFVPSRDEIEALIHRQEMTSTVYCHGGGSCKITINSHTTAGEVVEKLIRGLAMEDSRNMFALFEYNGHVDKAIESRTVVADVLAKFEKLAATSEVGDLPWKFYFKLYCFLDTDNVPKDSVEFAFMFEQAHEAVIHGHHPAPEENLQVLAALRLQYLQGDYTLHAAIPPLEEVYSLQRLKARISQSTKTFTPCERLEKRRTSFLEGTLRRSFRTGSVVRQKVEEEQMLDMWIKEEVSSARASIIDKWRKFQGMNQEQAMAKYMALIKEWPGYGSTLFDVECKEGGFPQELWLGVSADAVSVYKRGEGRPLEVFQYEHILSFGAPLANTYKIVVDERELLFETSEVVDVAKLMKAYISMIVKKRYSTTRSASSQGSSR

No constants are given. Whether binding was seen depends on the method and setting. Binding seen in cells or lysates may run through a third protein.

The assay concerns the target myosin-X (Myo10) (human (endogenous in primary trabecular meshwork cells)) (UniProt Q9HD67). The assay is described as follows: co-IP; Myosin-10 polyclonal antibody on protein A/G magnetic beads, incubated with TM cell RIPA lysates with 10 mM MgCl2 overnight at 4°C, washed with PBST; blots probed with integrin β1, α5, αvβ3, αvβ5 or CDH11 antibodies.

B1: Cadherin-11 (CDH11) (protein, UniProt P55287 54-796)
chain: GWVWNQFFVIEEYTGPDPVLVGRLHSDIDSGDGNIKYILSGEGAGTIFVIDDKSGNIHATKTLDREERAQYTLMAQAVDRDTNRPLEPPSEFIVKVQDINDNPPEFLHETYHANVPERSNVGTSVIQVTASDADDPTYGNSAKLVYSILEGQPYFSVEAQTGIIRTALPNMDREAKEEYHVVIQAKDMGGHMGGLSGTTKVTITLTDVNDNPPKFPQSVYQMSVSEAAVPGEEVGRVKAKDPDIGENGLVTYNIVDGDGMESFEITTDYETQEGVIKLKKPVDFETKRAYSLKVEAANVHIDPKFISNGPFKDTVTVKISVEDADEPPMFLAPSYIHEVQENAAAGTVVGRVHAKDPDAANSPIRYSIDRHTDLDRFFTINPEDGFIKTTKPLDREETAWLNITVFAAEIHNRHQEAKVPVAIRVLDVNDNAPKFAAPYEGFICESDQTKPLSNQPIVTISADDKDDTANGPRFIFSLPPEIIHNPNFTVRDNRDNTAGVYARRGGFSRQKQDLYLLPIVISDGGIPPMSSTNTLTIKVCGCDVNGALLSCNAEAYILNAGLSTGALIAILACIVILLVIVVLFVTLRRQKKEPLIVFEEEDVRENIITYDDEGGGEEDTEAFDIATLQNPDGINGFIPRKDIKPEYQYMPRPGLRPAPNSVDVDDFINTRIQEADNDPTAPPYDSIQIYGYEGRGSVAGSLSSLESATTDSDLDYDYLQNWGPRFKKLADLYGSKDTFDDDS
Regarding B1, the binding result is given as “no binding”.
